No constants are given. Whether binding was seen depends on the method and setting. Some binding calls cover weakened binding; strength is not graded here.
B1: mAb-99 (antibody, V domains shown)
VH: EVQLQQSGAELVRPGSSVKMSCKTSGYTFTNYGINWVKQRPRQGLEWIGYIYIGNGDIEYNAKFKGKATLTSDTSSSTAYMQLSSLTSEDSAIYFCARGRGLGHFDVWGTGTTVTVSS
VL: DVQITQSPSYLAASPGETITINCRASKSISKFLAWFQEKPGKTNKLLIYSGSTLQSGIPSRFSGSGSGTDFTLTISGLEPEDFAMYYCQQHNEYPWTFGGGTKLEIK
B2: mAb-18 (antibody, V domains shown)
VH: QVQLQQSGPELVRPGVSVKISCKGSGYTFTDYAMHWVKQTHAKSLEWIGVISTYSGTTNYNQNFKGKATVTVDKSSSTAYMELARLTSEDSAIYYCARSGPLDYWGQGTSLTVSS
VL: ENVLTQSPAIMSASPGEKVTMTCRASSSVSSSYLHWYQQKSGASPKLWIYSTSNLASGVPERFSGSGSGTSYSLTISSVEAEDAATYYCQQYSGYPLTFGSGTKLEIK
B3: hAb99-13 (antibody, human IgG1, kappa, L234A L235A, V domains shown)
VH: EVQLVQSGAEVKKPGASVKVSCKASGYTFTNYGINWVRQAPGQRLEWMGYIYIGNVDIEYNAKFKGRVTITSDTSASTAYMELSSLRSEDTAVYYCARGRGLGHFDVWGQGTTVTVSS
VL: DIQMTQSPSSLSASVGDRVTITCRASKSISKFLAWFQQKPGKTNKLLIYSGSTLQSGVPSRFSGSGSGTDFTLTISSLQPEDFATYYCQQHNEYPWTFGGGTKVEIKR
B4: hAb18-8 (antibody, human IgG1, kappa, L234A L235A, V domains shown)
VH: EVQLVQSGAEVKKPGASVKVSCKASGYTFTDYAMHWVRQAPGQRLEWMGVISTYSGTTNYNQNFKGRVTITVDKSASTAYMELSSLRSEDTAVYYCARSGPLDYWGQGTTVTVSS
VL: ENVLTQSPDFQSVTPKEKVTITCRATSSVSSSYLHWYQQKPDQSPKLWIYSTSQLASGVPSRFSGSGSGTDYTLTINSLEAEDAATYYCQQYSGYPLTFGQGTKLEIKR

The chains behind the UniProt entries cited, without tags or fusion partners. Where a name states a change or a piece, a line headed by the entry shows the natural chain unless it says otherwise. Residues count along the entry.
UniProt Q86Z14: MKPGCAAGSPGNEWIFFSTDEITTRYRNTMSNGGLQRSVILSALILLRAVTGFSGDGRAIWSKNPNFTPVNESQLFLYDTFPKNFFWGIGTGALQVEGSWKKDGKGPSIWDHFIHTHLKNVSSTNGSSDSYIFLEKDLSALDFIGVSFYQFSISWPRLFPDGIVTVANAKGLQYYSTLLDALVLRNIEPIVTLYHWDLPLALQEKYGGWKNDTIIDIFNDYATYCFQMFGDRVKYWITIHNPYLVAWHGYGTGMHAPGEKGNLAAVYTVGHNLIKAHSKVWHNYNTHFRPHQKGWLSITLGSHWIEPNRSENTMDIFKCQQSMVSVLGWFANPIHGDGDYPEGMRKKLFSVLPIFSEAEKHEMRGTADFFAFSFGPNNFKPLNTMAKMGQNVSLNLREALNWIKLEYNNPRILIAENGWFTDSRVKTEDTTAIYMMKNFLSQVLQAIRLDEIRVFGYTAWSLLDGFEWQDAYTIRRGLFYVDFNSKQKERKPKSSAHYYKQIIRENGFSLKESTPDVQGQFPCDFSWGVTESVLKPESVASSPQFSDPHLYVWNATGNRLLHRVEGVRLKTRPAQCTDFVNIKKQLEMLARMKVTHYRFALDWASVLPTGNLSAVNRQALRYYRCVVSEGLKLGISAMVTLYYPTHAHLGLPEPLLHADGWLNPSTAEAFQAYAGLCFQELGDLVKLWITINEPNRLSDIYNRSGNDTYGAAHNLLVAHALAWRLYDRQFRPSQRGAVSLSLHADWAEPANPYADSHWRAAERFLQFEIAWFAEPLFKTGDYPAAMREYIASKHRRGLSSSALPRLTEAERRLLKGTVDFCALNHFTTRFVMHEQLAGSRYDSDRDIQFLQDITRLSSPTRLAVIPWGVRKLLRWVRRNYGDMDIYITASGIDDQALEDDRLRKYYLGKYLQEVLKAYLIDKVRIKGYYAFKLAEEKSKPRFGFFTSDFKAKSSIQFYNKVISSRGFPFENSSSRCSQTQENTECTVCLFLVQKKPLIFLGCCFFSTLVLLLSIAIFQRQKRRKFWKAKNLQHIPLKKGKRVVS
hKLB (R&D, Cat. # 5889-KB): residues 53-997 of Q86Z14
UniProt P11362: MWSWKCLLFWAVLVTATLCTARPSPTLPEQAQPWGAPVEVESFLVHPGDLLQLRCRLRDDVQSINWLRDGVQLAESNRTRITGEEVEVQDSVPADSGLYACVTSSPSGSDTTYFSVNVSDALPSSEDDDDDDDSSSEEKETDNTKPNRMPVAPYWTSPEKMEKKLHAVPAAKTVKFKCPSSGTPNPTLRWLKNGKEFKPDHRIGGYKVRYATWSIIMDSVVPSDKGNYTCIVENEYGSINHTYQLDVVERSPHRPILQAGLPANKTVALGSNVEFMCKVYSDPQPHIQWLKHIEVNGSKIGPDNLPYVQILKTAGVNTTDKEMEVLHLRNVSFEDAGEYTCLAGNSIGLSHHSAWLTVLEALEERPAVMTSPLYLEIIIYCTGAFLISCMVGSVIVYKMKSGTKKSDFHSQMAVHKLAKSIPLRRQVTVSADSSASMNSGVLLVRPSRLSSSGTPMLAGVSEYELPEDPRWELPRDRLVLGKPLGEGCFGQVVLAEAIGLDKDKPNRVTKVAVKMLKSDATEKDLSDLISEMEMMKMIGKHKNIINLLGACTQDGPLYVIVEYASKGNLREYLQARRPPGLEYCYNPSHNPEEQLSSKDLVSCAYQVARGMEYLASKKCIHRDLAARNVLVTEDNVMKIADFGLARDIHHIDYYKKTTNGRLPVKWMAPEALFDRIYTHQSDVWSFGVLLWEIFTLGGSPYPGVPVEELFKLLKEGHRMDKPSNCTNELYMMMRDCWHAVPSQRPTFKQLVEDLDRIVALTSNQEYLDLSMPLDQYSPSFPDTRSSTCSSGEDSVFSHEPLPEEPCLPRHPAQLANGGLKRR

Tests used:
[1] = biological target: human KLB&FGFR1c complex on cells (human) (UniProt Q86Z14+P11362); test: hybridoma clone screening on recombinant cells
[2] = biological target: cynomolgus monkey KLB on CHOK1-cynoKLB cells (cynomolgus monkey); test: flow cytometry on CHOK1-cynoKLB cells
[3] = biological target: hKLB (R&D, Cat. # 5889-KB) (human) (UniProt Q86Z14); test: SPR (Biacore)
[4] = biological target: human KLB on CHOK1-hKLB cells (human) (UniProt Q86Z14); test: flow cytometry on CHOK1-hKLB cells

binding [1] | binding [2] | binding [3] | binding [4] | Binder
binds | – | – | – | B1
binds | – | – | – | B2
– | binds | binds | binds | B3
– | binds | binds | binds | B4

Source: US20240270874A1
